About 560 (0.17%) of roughly 330,000 compounds were called active. The inconclusive results got no clear call from the source; some entries with a clear call stand among them for comparison.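 How the source made its calls: active means activation at or above 40% of the spot to cytoplasm intensity ratio, with at least 20 cells analyzed; inconclusive means wells under 20 cells, flagged as cytotoxic or low count; inactive means the rest.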
target: Neurotensin receptor type 1 (Homo sapiens) (UniProt P30989); assay: NTR1-driven beta-arrestin-GFP spot formation – imaging, U2OS cells, high content, primary screen (AID 493036) (AID 493036); details: agonist mode, at 20 µM, hits give high values;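 further: 0% = DMSO without peptide and 100% = 100 nM NTR1 peptide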

Chains of the proteins cited; added tags and fusions are not shown.
UniProt P30989, whole entry, looked up: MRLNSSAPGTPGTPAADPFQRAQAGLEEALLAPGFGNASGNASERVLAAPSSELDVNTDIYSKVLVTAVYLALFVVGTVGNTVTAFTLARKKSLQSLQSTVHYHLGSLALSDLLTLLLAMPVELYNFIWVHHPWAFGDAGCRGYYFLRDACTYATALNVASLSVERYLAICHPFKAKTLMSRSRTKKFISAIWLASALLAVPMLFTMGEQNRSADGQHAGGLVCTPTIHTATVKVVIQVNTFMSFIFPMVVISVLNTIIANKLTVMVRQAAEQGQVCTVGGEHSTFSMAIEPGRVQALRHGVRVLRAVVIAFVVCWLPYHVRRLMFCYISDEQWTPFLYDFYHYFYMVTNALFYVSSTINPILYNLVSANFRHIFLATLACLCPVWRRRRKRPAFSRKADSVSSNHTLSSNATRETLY

SMILES	activation
COc1cccc(C2C(C(=O)c3cccs3)=C(O)C(=O)N2CCN2CCOCC2)c1OC (stereo not drawn)	inactive: -2.3%
COC(=O)c1ccc(/C=C/C(=O)OCC(=O)Nc2sccc2C(N)=O)cc1	active: 45.2%
O=Cc1ccc(Sc2nnc(-c3ccccc3)o2)c([N+](=O)[O-])c1	inconclusive: 45.4%

Source: PubChem BioAssay AID493036 (Sanford-Burnham Center for Chemical Genomics, 2011)
